Data on 1 substance can be found in patent publication US20140234872A1.

Protein sequences, listed by entry. Tags and fused reporters are not part of them. Lines headed by an entry give the natural chain unless they say otherwise; changes in a name come on top. Chains listed by the source or under a name are the forms on record and can include a tag or linker.
UniProt P29350: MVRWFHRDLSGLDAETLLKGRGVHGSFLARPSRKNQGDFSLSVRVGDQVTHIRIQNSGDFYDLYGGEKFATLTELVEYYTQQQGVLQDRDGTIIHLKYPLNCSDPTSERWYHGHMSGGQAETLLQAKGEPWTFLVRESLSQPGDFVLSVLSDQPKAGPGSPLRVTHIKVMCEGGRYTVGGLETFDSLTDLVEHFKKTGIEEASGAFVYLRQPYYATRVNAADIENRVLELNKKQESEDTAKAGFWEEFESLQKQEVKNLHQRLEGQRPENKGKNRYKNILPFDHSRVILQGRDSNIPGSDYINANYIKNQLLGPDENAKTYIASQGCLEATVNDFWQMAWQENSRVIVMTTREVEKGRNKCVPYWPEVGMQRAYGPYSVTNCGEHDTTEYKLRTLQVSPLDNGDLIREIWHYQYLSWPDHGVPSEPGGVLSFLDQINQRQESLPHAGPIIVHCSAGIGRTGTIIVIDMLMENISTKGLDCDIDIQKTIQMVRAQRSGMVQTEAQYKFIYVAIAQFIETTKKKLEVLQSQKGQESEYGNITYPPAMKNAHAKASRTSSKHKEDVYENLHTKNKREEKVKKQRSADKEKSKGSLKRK
endogenous GIV of HEK cells (Q3V6T2, form named): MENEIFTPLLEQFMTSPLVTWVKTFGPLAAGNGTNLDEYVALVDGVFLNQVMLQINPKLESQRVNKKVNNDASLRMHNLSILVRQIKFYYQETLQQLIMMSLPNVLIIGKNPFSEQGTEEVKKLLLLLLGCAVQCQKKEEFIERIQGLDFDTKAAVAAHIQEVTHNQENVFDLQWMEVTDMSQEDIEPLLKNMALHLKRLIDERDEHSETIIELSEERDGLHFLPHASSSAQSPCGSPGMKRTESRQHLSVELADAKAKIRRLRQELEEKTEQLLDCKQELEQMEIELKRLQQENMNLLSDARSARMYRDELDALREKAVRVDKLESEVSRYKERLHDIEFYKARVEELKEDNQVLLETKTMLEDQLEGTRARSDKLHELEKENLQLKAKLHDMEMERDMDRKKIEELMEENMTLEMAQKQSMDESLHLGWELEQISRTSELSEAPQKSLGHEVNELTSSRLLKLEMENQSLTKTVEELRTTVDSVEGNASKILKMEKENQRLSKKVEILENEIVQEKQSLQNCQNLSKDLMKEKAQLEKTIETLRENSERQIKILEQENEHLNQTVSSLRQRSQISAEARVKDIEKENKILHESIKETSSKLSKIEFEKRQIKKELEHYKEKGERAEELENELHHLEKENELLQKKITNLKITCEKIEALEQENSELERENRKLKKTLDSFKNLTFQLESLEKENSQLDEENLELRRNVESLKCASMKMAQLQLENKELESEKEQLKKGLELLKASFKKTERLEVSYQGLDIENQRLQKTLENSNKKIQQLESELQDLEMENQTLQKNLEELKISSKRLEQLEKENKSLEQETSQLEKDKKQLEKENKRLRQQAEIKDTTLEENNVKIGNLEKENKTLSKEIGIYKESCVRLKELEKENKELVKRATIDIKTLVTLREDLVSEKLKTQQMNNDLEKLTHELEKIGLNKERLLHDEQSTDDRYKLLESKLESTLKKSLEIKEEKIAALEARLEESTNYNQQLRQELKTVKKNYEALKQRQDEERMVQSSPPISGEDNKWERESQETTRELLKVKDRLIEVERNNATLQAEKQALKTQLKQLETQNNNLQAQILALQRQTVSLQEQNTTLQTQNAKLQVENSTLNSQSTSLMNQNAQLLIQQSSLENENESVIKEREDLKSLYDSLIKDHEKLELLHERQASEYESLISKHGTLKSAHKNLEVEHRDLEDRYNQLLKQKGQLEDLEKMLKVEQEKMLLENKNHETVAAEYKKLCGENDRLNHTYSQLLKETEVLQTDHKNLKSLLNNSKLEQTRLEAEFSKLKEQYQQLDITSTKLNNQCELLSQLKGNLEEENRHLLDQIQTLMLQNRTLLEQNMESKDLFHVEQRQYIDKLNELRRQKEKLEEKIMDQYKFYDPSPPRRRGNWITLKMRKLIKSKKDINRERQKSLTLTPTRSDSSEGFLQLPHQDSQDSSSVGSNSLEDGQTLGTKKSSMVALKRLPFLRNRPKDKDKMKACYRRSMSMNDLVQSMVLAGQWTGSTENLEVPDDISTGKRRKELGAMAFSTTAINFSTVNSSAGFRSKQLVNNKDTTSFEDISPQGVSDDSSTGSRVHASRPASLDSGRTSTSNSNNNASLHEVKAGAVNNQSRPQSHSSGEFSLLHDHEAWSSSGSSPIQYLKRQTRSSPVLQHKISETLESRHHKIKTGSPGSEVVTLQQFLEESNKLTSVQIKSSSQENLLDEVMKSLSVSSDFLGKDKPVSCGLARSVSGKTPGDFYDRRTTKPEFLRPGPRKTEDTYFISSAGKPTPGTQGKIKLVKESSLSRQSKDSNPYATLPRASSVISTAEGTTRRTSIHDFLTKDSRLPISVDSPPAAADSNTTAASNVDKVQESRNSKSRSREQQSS

These are yes or no findings as the source states them, for the method shown. Binding seen in cells or lysates may run through a third protein. Some entries that bind do so weakly or less than the wild type.

The target of assay [1] is endogenous SHP-1 of HEK cells (UniProt P29350). The assay is described as follows: anti-SHP-1 co-immunoprecipitation from HEK cells (FIG. 26).
The target is the same in assay [2]. The assay is described as follows: anti-SHP-1 co-immunoprecipitation from HEK lysates (FIG. 26).

For “endogenous GIV of HEK cells (from UniProt Q3V6T2 1-1870)”, the binding result in assay [1] and in assay [2] was “binds” throughout.
